This assay deals with P388 leukemia ip, CD2F1 mice, survival T/C. Briefly: NCI In Vivo Anticancer Drug Screen. Data for tumor model P388 Leukemia (intraperitoneal) in CD2F1 (CDF1) mice. The note with it: T/C endpoint: median survival time, higher T/C = longer survival.
Setting [1] is: dose: 50.0 mg/kg/injection, schedule: Q01DX009 (ip), vehicle: saline with Tween-80.
Where [2] appears, read: dose: 100.0 mg/kg/injection, schedule: Q01DX009 (ip), vehicle: saline with Tween-80.
Where [3] appears, read: dose: 200.0 mg/kg/injection, schedule: Q01DX009 (ip), vehicle: saline with Tween-80.
Setting [4] is: dose: 50.0 mg/kg/injection, schedule: Q01DX009 (ip), vehicle: saline.
[5] abbreviates: dose: 200.0 mg/kg/injection, schedule: Q01DX005 (ip), vehicle: saline.
Setting [6] is: dose: 100.0 mg/kg/injection, schedule: Q01DX005 (ip), vehicle: saline with Tween-80.
Setting [7] is: dose: 200.0 mg/kg/injection, schedule: Q01DX005 (ip), vehicle: Klucel (hydroxypropylcellulose) (HPC).
Setting [8] is: dose: 240.0 mg/kg/injection, schedule: Q01DX005 (ip), vehicle: saline with Tween-80.
The mark [9] stands for this setting: dose: 120.0 mg/kg/injection, schedule: Q01DX005 (ip), vehicle: Klucel (hydroxypropylcellulose) (HPC).
[10] abbreviates: dose: 240.0 mg/kg/injection, schedule: Q01DX005 (ip), vehicle: Klucel (hydroxypropylcellulose) (HPC).

The list does not hold the whole screen: it gathers tests that were run many times, whatever their T/C, doses with no T/C, and many T/C values between a quarter and a half above the control. Further doses and runs are listed elsewhere. T/C gives the treated animals as a percentage of the vehicle group. Some entries give survivors of the animals treated and no T/C: the source holds a T/C of zero for them, seemingly a mark for toxic or unscored doses. Some survivor counts are full or nearly so, which does not show that the dose was tolerated: the source hardly ever lists a survival T/C far under the control, and the zero likely stands for such cases as well. Survivors were counted at the toxicity check, usually on the fifth day, unless a day is given; later deaths do not show. Schedule codes are those of the source, read here as Q, the interval in days (D) or hours (H), X, the number of doses. Where survival is the endpoint, this PubChem deposit counts one and a half times the control or more as active, and values a quarter to a half above the control carry no call in these data; other NCI protocols may use other cut-offs. Signs of the kind (2×) say how often a value occurs here. Some doses were run more than once; the results are listed from low to high.

In the case of `O=c1c2ccccc2nc(-c2ccccc2Cl)n1-c1nnc(C(F)(F)F)s1`, the survivor count is, setting by setting: under setting [1], 0 of 6; under setting [2], 0 of 6; under setting [3], 0 of 6.

In the case of `CC[N](CC)[Ge]([CH2]C)[CH2]C.C[CH2][Ge]([CH2]C)[CH2]C`, under setting [4], the T/C was 133 % of control and the survivor count was 0 of 6. Further, the survivor count (dose: 200.0 mg/kg/injection, schedule: Q01DX009 (ip), vehicle: saline) was 0 of 6.

`O=C1C=CC(=Nc2cc(Br)c(O)c(Br)c2)C=C1`: the survivor count runs as follows: (dose: 100.0 mg/kg/injection, schedule: Q01DX005 (ip), vehicle: saline) 0 of 5; under setting [5], 0 of 5.

Turning to `O=NN(CCCl)C(=O)NC1C2CC3CC(C2)CC1C3` (stereo not drawn), for the setting “dose: 5.0 mg/kg/injection, schedule: Q04DX003 (ip), vehicle: other”, the T/C was 140 % of control. Further, the survivor count reads like this: (dose: 200.0 mg/kg/injection, schedule: Q04DX003 (ip), vehicle: other) 2 of 6; (dose: 400.0 mg/kg/injection, schedule: Q04DX003 (ip), vehicle: other) 2 of 6.

Take `C/C(=N\NC(=S)N1CCC(c2ccccc2)CC1)c1ncccn1`: the T/C is, setting by setting: (dose: 25.0 mg/kg/injection, schedule: Q01DX005 (ip), vehicle: saline with Tween-80) 127 % of control; (dose: 50.0 mg/kg/injection, schedule: Q01DX005 (ip), vehicle: saline with Tween-80) 131 % of control; under setting [6], 149 % of control. Further, the survivor count under setting [6] is reported as 6 of 6 and the survivor count (dose: 200.0 mg/kg/injection, schedule: Q01DX005 (ip), vehicle: saline with Tween-80) is on record as 0 of 6.

As for `O=[N+]([O-])c1ccc(/C=C(/c2ccc([N+](=O)[O-])o2)S(=O)(=O)c2ccccc2)o1`, the survivor count (dose: 200.0 mg/kg/injection, schedule: Q01DX009 (ip), vehicle: suspension in saline) is reported as 3 of 6.

As for `CC(C)(C)c1cc(O)cc(C(=O)O)c1O`, the survivor count under setting [3] is on record as 2 of 6.

With `CCCN(CCC)c1ncnc2[nH]ncc12`, under setting [5], the survivor count is given as 4 of 5.

With `Cc1ccc(N=C=C(c2ccccc2)c2ccccc2)cc1`, the survivor count (dose: 200.0 mg/kg/injection, schedule: Q01DX009 (ip), vehicle: Klucel (hydroxypropylcellulose) (HPC)) was 6 of 6.

For the compound `O=C1C(Cl)=C(NCCC2CCCN3CCCCC23)C(=O)c2ccccc21` (stereo not drawn), the T/C runs as follows: (dose: 50.0 mg/kg/injection, schedule: Q01DX005 (ip), vehicle: Klucel (hydroxypropylcellulose) (HPC), evaluated on day 20) 102 % of control (2×); (dose: 50.0 mg/kg/injection, schedule: Q01DX005 (ip), vehicle: Klucel (hydroxypropylcellulose) (HPC), evaluated on day 30) 100 and 120 % of control. In addition, the survivor count (dose: 100.0 mg/kg/injection, schedule: Q01DX005 (ip), vehicle: Klucel (hydroxypropylcellulose) (HPC)) was 6 of 6 and the survivor count under setting [7] was 0 of 6.

Take `O=C(O)C[N-]CC(=O)O.OO.[O]=[V]`: the survivor count reads like this: (dose: 60.0 mg/kg/injection, schedule: Q01DX005 (ip), vehicle: saline with Tween-80) 0 of 6; (dose: 120.0 mg/kg/injection, schedule: Q01DX005 (ip), vehicle: saline with Tween-80) 0 of 6; under setting [8], 0 of 6.

Regarding `CSc1c2c(c(C)c3c1[nH]c1ccccc13)C=NCC2`, the survivor count (dose: 200.0 mg/kg/injection, schedule: Q04DX002 (ip), vehicle: distilled water + Tween-80) was 5 of 5.

On to `c1ccc(-c2ccc[n+](CCCC[n+]3cccc(-c4ccccn4)c3)c2)nc1`, for which the survivor count (dose: 30.0 mg/kg/injection, schedule: Q01DX005 (ip), vehicle: saline) is on record as 1 of 6; the survivor count (dose: 60.0 mg/kg/injection, schedule: Q01DX005 (ip), vehicle: saline) is on record as 0 of 6; the survivor count (dose: 120.0 mg/kg/injection, schedule: Q01DX005 (ip), vehicle: saline) is 0 of 6; the survivor count (dose: 240.0 mg/kg/injection, schedule: Q01DX005 (ip), vehicle: saline) was 0 of 6.

`O=C(CC(=O)c1ccccc1F)Nc1ccc([N+](=O)[O-])cc1`: the survivor count reads like this: under setting [2], 6 of 6; under setting [3], 6 of 6; (dose: 400.0 mg/kg/injection, schedule: Q01DX009 (ip), vehicle: saline with Tween-80) 5 of 6.

In the case of `COc1c(OC)c([N+](=O)[O-])c2c(c1[N+](=O)[O-])COC2=O`, under setting [7], the survivor count is given as 0 of 6.

As for `CCCC1CN2CCc3cc(OC)c(OC)cc3C2C/C1=C/C(=O)OCC` (stereo not drawn), under setting [2], the survivor count is listed as 6 of 6.

As for `CCCC[P+](CCCC)(CCCC)CC(=O)O`, under setting [3], the survivor count is reported as 1 of 6.

Regarding `CN(C)CCC1c2ccc(Cl)cc2CCc2cccnc21` (stereo not drawn) (tested in a mixture with another compound), the survivor count under setting [5] is 0 of 6.

With `COc1cc(OC)c(NC(=O)ON2C(=O)c3ccccc3C2=O)cc1Cl`, the T/C under setting [1] is 132 % of control. The survivor count is on record as 5 of 6 under setting [2] and 3 of 6 under setting [3].

In the case of `CS(C)=O`, the survivor count (dose: 3.0 grams/kg/injection, schedule: Q01DX009 (ip), vehicle: saline) is listed as 3 of 6.

As for `CNc1cc(C)c2ccc(N(C)C)cc2n1`, the survivor count is recorded as 0 of 6 under setting [9] and 0 of 6 under setting [10].

Regarding `CC(C)c1cc(C(=O)O)c(O)c(C(C)C)c1.CC(C)c1cc(C(=O)O)c(O)c(C(C)C)c1.[Mn]`, the T/C under setting [9] was 127 % of control. Also, the survivor count under setting [10] was 0 of 6.

On to `CCOP(=O)(O)C1CCCC(C)[N-]1.CCOP(=O)(O)C1CCCC(C)[N-]1.CCOP(=O)(O)C1CCCC(C)[N-]1.[Cr+3]` (stereo not drawn), for which the survivor count (dose: 400.0 mg/kg/injection, schedule: Q04DX003 (ip), vehicle: Klucel (hydroxypropylcellulose) (HPC)) is 6 of 6.

For the compound `CC(Cc1ccccc1)N(C)C1=C(CCC#N)CC(C(C)(C)C)CC1` (stereo not drawn), the survivor count under setting [5] is recorded as 5 of 6.

As for `CN[C@H]1CCc2cc(OC)c(OC)c(OC)c2-c2ccc(O)c(=O)cc21`, for the setting “dose: 160.0 mg/kg/injection, schedule: Q01DX009 (ip), vehicle: Klucel (hydroxypropylcellulose) (HPC)”, the T/C was 135 % of control. For the same compound, for the setting “dose: 320.0 mg/kg/injection, schedule: Q01DX009 (ip), vehicle: Klucel (hydroxypropylcellulose) (HPC)”, the survivor count is 0 of 5.

For `O=C1c2ccccc2C(=O)N1OCc1ccc(-c2ccccc2)cc1`, the survivor count under setting [7] is given as 5 of 6.

With `O=C1OC2C3COC(=O)c4cc(O)c(O)c(O)c4-c4c(cc(O)c(O)c4O)C(=O)OC2C(OC(=O)c2cc(O)c(O)c4c2[C@@H]2C1=CC(=O)[C@](O)(O4)C2(O)O)C(OC(=O)c1cc(O)c(O)c(O)c1)O3` (stereo partly drawn), the survivor count (dose: 50.0 mg/kg/injection, schedule: Q01DX005 (ip), vehicle: DMSO) is on record as 5 of 6 and the survivor count (dose: 100.0 mg/kg/injection, schedule: Q01DX005 (ip), vehicle: DMSO) is recorded as 0 of 6.

In the case of `CCN(CC)Cc1c(C)[nH]c2cc3c(cc2c1=O)CCCC3`, the survivor count under setting [10] is 0 of 6.

As for `CN(C)c1ccc(/C=N/NC(=O)c2ccccc2N)c(Cl)c1`, under setting [8], the survivor count is 6 of 6.

Consider `CSC(=S)/C(=C/Nc1ccccn1)c1ccccc1`, for which the survivor count was 6 of 6 (dose: 3.75 mg/kg/injection, schedule: Q01DX005 (ip), vehicle: Klucel (hydroxypropylcellulose) (HPC)); 6 of 6 (dose: 7.5 mg/kg/injection, schedule: Q01DX005 (ip), vehicle: Klucel (hydroxypropylcellulose) (HPC)); 6 of 6 (dose: 15.0 mg/kg/injection, schedule: Q01DX005 (ip), vehicle: Klucel (hydroxypropylcellulose) (HPC)); 6 of 6 (dose: 30.0 mg/kg/injection, schedule: Q01DX005 (ip), vehicle: Klucel (hydroxypropylcellulose) (HPC)); 6 of 6 (dose: 60.0 mg/kg/injection, schedule: Q01DX005 (ip), vehicle: Klucel (hydroxypropylcellulose) (HPC)); 6 of 6 under setting [9]. In addition, the survivor count under setting [10] is 6 of 6.

Values taken from PubChem BioAssay AID330 (DTP/NCI, 2004).
